The text below walks through data of publication PMC10520872.

The target of this assay is T1, Mst77F-V5 (male-specific transcript 77F, recombinant full-length with a C-terminal V5 tag) (Drosophila melanogaster) (UniProt P16909).
T1 sequence: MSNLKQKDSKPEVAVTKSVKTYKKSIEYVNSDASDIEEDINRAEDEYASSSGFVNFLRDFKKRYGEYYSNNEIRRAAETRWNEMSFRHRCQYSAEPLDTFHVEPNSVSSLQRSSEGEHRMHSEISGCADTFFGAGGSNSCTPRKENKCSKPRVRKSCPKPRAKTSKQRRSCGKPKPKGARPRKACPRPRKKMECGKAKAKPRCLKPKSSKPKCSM
Description: affinity purification with mass spectrometry; Mst77F-V5 released from the DNA-Mst77F-V5 substrate by S-190 embryonic extract; top fractions of a 5-45% sucrose gradient (25 mM Hepes-K+ pH 7.6, 150 mM NaCl, 4 °C) immunoprecipitated with anti-V5 agarose, eluted with glycine pH 2.0; SDS-PAGE bands identified by mass spectrometry; control: S-190 only; only the target purified.

Results are given in words; binding and its absence hold for the method and conditions named. Binding seen in cells or lysates may run through a third protein. A yes stands for co-enrichment or nearness to the bait. Other partners may have been found. Sequences can lack the tags named with a protein.

B1: NLP (nucleoplasmin-like protein), native, from Drosophila embryonic S-190 extract (protein, UniProt Q27415 1-152)
chain: MAEESFYGVTLTAESDSVTWDVDEDYARGQKLVIKQILLGAEAKENEFNVVEVNTPKDSVQIPIAVLKAGETRAVNPDVEFYESKVTFKLIKGSGPVYIHGHNIKDDVEVVDMEEDDEEDDVAEDEEDEHPKKRAKIENAADGKNAKNNKKK
B1: the binding entry is on record as “binds”.

B2: NAP1 (nucleosome assembly protein 1), native, from Drosophila embryonic S-190 extract (protein, UniProt Q9W1G7 1-370)
chain: MDAPAEGHVDPESCNEIEDEKSGSDCQSMPAYMNSVMRRQYLQQMVKMLPAPVQNRIVFLKNLQLQHLNIEAQFFEDVYKLEQKYQVQYQPLFDKRREIIEGKVDPAEEKPQWKEPESSTDNEADAEHFREALSSLKSIPKDAKGIPGFWLTVFRNTAIMSEMVQPHDEPAIRKLIDISIKYDNGHSYTLEFHFDKNEYFSNSVLTKQYVLKSTVDPNDPFAFEGPEIYKCTGCTINWEKKMNLTVKTIRKKQKHKERGAVRTIVKQVPTDSFFNFFSPPEVPSDQEEVDDDSQQILATDFEIGHFLRARIIPKAVLYYTGDIVDDEDDEDEEEYDENEEDEYDDDDAPPPKGPKSAGIKKQSPNDCPNQ
Take B2: the binding result is on record as “binds”.
